Measurements from paper PMC9617928.

Chains of the proteins cited; added tags and fusions are not shown.
UniProt P07814: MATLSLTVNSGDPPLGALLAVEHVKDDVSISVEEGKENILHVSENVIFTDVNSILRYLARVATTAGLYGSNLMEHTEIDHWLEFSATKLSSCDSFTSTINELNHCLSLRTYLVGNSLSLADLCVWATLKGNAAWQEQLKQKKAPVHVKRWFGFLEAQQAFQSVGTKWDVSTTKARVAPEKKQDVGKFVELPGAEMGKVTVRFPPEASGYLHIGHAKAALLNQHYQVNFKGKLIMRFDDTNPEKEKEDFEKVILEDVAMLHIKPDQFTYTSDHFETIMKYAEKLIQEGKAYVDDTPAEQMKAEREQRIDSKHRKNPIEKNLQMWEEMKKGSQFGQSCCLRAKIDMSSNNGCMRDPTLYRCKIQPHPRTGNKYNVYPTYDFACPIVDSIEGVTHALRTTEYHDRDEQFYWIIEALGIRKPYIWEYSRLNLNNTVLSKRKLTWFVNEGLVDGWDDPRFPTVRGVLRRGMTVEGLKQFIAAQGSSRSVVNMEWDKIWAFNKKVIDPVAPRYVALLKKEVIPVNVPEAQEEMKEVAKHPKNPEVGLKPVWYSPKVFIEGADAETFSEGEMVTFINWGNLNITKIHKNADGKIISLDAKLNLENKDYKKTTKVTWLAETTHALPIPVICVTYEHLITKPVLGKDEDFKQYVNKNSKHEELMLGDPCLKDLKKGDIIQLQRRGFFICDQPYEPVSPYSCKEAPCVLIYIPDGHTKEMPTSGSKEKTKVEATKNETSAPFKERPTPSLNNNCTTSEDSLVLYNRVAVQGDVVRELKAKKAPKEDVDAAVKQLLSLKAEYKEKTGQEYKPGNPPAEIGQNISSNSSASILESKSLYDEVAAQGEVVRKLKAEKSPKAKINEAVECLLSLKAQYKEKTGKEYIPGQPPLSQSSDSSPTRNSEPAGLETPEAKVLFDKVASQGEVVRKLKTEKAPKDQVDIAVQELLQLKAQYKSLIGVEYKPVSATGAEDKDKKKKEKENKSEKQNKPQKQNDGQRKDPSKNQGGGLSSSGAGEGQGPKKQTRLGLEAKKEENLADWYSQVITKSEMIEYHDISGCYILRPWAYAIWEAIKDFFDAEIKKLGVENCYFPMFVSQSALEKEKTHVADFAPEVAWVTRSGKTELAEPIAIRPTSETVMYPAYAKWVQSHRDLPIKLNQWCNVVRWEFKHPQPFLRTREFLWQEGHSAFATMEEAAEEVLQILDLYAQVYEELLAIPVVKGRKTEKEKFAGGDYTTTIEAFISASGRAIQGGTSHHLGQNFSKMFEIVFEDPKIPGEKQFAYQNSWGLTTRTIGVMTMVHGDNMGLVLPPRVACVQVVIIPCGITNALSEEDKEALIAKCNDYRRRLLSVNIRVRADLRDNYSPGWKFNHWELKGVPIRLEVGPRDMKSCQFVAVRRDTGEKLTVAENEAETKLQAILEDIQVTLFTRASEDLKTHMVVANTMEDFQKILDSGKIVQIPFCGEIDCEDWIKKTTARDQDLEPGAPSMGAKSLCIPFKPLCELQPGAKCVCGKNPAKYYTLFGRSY
UniProt P31749: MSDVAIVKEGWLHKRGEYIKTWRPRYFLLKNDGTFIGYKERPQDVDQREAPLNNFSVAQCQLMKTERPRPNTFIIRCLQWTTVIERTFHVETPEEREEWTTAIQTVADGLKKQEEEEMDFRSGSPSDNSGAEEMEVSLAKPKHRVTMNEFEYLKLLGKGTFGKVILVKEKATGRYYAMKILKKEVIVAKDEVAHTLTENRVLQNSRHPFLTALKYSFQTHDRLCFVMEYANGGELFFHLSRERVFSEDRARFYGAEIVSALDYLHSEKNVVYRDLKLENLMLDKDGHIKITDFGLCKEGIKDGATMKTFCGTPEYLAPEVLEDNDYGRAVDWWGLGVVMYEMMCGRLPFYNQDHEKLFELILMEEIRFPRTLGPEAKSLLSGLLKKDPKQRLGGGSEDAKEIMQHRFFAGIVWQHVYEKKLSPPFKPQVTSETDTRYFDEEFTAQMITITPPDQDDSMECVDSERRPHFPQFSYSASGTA
UniProt P51148: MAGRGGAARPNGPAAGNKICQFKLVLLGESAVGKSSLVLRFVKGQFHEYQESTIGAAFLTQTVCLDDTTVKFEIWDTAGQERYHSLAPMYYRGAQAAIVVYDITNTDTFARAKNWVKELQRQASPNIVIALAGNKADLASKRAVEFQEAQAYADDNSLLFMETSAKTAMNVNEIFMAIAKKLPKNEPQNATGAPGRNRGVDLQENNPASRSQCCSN

How the values were obtained:
[1] = target: Strep-EPRS1 (glutamyl-prolyl-tRNA synthetase 1, Strep-tagged) (human) (UniProt P07814); assay: affinity purification with mass spectrometry; Strep-EPRS1 in transfected 293T cells, unstimulated or LPS-stimulated; Strep-Tactin Superflow column, desthiobiotin elution, in-gel digestion, Orbitrap
[2] = target: Strep-EPRS1 (glutamyl-prolyl-tRNA synthetase 1, Strep-tagged) (human) (UniProt P07814); assay: as above; remark: listed apart in the source

Molecule: AKT1, endogenous in 293T cells (from UniProt P31749 1-480) (enzyme)
- binding [1]: binds

Molecule: Rab5C, endogenous in 293T cells (from UniProt P51148 1-216)
- binding [1]: binds

B1: Rab5B, endogenous in 293T cells (protein, UniProt P61020 1-215)
chain: MTSRSTARPNGQPQASKICQFKLVLLGESAVGKSSLVLRFVKGQFHEYQESTIGAAFLTQSVCLDDTTVKFEIWDTAGQERYHSLAPMYYRGAQAAIVVYDITNQETFARAKTWVKELQRQASPSIVIALAGNKADLANKRMVEYEEAQAYADDNSLLFMETSAKTAMNVNDLFLAIAKKLPKSEPQNLGGAAGRSRGVDLHEQSQQNKSQCCSN
- binding [2]: binds

Where two headings read alike, the source gives them in different places. Results are given in words; binding and its absence hold for the method and conditions named. Binding seen in cells or lysates may run through a third protein. These calls come from enrichment with a bait or labelling near it, and not all partners need be listed.
